Where a chain is given by its changes, count along the chain named. In names and notes the source's numbering stands. No constants are given. Whether binding was seen depends on the method and setting. In cells and extracts the contact can be indirect. Some binding calls cover weakened binding; strength is not graded here. Sequences can lack the tags named with a protein.
B1: GFP-LITAF Y61A (protein, UniProt Q9JLJ0 1-161)
chain: MSAPGPYQAAAGPSVVPTAPPTYEETVGVNSYYPTPPAPMPGPATGLITGPDGKGMNPPSAYTQPVPVPNANAIAVQTVYVQQPVSFYDRPVQMCCPSCSKMIVTQLSYNAGALTWLSCGSLCLLGCVAGCCFIPFCVDALQDVDHYCPNCKALLGTYKRL
B2: GFP-LITAF Y23,61A (protein, UniProt Q9JLJ0 1-161)
chain: B1 chain with Y23A

The chains behind the UniProt entries cited, without tags or fusion partners.
UniProt Q8C863: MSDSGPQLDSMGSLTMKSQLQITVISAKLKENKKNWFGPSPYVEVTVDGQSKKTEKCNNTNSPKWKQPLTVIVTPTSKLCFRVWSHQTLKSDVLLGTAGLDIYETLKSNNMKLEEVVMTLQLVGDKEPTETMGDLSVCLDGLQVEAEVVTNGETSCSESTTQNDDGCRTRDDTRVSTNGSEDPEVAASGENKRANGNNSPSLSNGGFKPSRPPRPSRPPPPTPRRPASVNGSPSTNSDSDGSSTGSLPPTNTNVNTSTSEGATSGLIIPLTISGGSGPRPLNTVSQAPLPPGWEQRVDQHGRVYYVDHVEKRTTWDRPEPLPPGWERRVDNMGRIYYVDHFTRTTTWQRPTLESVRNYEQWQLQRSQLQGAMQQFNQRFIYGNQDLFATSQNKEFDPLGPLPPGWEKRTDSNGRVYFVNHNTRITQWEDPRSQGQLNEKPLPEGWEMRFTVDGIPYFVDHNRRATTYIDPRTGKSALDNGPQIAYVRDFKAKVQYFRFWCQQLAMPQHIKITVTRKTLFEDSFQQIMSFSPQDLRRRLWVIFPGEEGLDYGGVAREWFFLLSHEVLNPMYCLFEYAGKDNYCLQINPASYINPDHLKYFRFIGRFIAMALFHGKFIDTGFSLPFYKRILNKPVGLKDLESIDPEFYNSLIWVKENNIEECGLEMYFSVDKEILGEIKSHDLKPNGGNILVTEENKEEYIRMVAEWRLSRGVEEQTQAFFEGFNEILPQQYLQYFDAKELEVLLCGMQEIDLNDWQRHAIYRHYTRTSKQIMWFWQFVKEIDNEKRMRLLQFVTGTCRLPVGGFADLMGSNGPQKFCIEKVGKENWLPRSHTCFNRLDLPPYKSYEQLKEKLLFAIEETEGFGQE

Experiments:
[1] = target: rLuc-Itch (UniProt Q8C863); test: FRET or BRET; BRET in living HEK-293T cells co-transfected with a constant amount of rLuc-Itch and various amounts of GFP fusion; coelenterazine 5 µM; saturation curves
[2] = target: GST-Itch WT (UniProt Q8C863); test: pull-down; 20 µg GST-fusion protein on glutathione Sepharose 4B incubated with extracts of transfected HEK-293T cells, 16 hours at 4°C, 20 mM Hepes pH 7.4, 150 mM NaCl, 1% Triton X-100; blot with anti-myc or anti-GFP; densitometry of four experiments for GST-Itch-WW; only the target purified

Row | binding [1] | binding [2] | Binder
1 | binds | – | B1
2 | no binding | no binding | B2

Source: PMC3033906
